This is one part of the list.
Key:
Test in all cases: glycan array binding signal (z-score within array); higher = stronger binding
Details in all cases: glycan notation: IUPAC condensed, linker removed
Fuc(a1-2)Gal = biological target: Fuc(a1-2)Gal
Procedure, shortened: (§1)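 From the Consortium for Functional Glycomics database, 3228 arrays were curated, keeping only those whose protein sequence was available. Binding is given as a within-array Z-score averaged across arrays sharing a protein sequence and across linkers. Negative Z-scores can be read as non-binding.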

Fuc(a1-2)Gal(b1-3)GalNAc = biological target: Fuc(a1-2)Gal(b1-3)GalNAc
Procedure, shortened: as §1

[1] = biological target: Fuc(a1-2)Gal(b1-3)GalNAc(b1-3)Gal
Procedure, shortened: as §1

[2] = biological target: Fuc(a1-2)Gal(b1-3)GalNAc(b1-3)Gal(a1-4)Gal(b1-4)Glc
Procedure, shortened: as §1

[3] = biological target: Fuc(a1-2)Gal(b1-3)GalNAc(b1-3)Gal(b1-4)Glc
Procedure, shortened: as §1

[4] = biological target: Fuc(a1-2)Gal(b1-3)GalNAc(b1-4)[Neu5Ac(a2-3)]Gal(b1-4)Glc
Procedure, shortened: as §1

[5] = biological target: Fuc(a1-2)Gal(b1-3)[Fuc(a1-4)]GlcNAc
Procedure, shortened: as §1

Fuc(a1-2)Gal(b1-4)Glc = biological target: Fuc(a1-2)Gal(b1-4)Glc
Procedure, shortened: as §1

Fuc(a1-2)Gal(b1-4)Glc6S = biological target: Fuc(a1-2)Gal(b1-4)Glc6S
Procedure, shortened: as §1

Fuc(a1-2)Gal(b1-4)GlcNAc = biological target: Fuc(a1-2)Gal(b1-4)GlcNAc
Procedure, shortened: as §1

[6] = biological target: Fuc(a1-2)Gal(b1-4)GlcNAc(b1-3)Gal(b1-4)GlcNAc
Procedure, shortened: as §1

[7] = biological target: Fuc(a1-2)Gal(b1-4)GlcNAc(b1-3)Gal(b1-4)GlcNAc(b1-3)Gal(b1-4)GlcNAc
Procedure, shortened: as §1

[8] = biological target: Fuc(a1-2)Gal(b1-4)GlcNAc6S
Procedure, shortened: as §1

[9] = biological target: Fuc(a1-2)Gal(b1-4)[Fuc(a1-3)]GalNAc(b1-3)Gal(b1-4)[Fuc(a1-3)]GlcNAc
Procedure, shortened: as §1

[10] = biological target: Fuc(a1-2)Gal(b1-4)[Fuc(a1-3)]GalNAc(b1-3)Gal(b1-4)[Fuc(a1-3)]GlcNAc(b1-3)Gal(b1-4)[Fuc(a1-3)]GalNAc
Procedure, shortened: as §1

[11] = biological target: Fuc(a1-2)Gal(b1-4)[Fuc(a1-3)]GlcNAc
Procedure, shortened: as §1

Fuc(a1-2)Gal6S(b1-4)Glc = biological target: Fuc(a1-2)Gal6S(b1-4)Glc
Procedure, shortened: as §1

[12] = biological target: Fuc(a1-2)Gal6S(b1-4)Glc6S
Procedure, shortened: as §1

[13] = biological target: Fuc(a1-2)Gal6S(b1-4)GlcNAc
Procedure, shortened: as §1

Fuc(a1-2)GlcNAc = biological target: Fuc(a1-2)GlcNAc
Procedure, shortened: as §1

Fuc(a1-2)[Gal(a1-3)]Gal = biological target: Fuc(a1-2)[Gal(a1-3)]Gal
Procedure, shortened: as §1

[14] = biological target: Fuc(a1-2)[Gal(a1-3)]Gal(b1-3)GlcNAc
Procedure, shortened: as §1

[15] = biological target: Fuc(a1-2)[Gal(a1-3)]Gal(b1-4)Glc
Procedure, shortened: as §1

[16] = biological target: Fuc(a1-2)[Gal(a1-3)]Gal(b1-4)GlcNAc
Procedure, shortened: as §1

[17] = biological target: Fuc(a1-2)[Gal(a1-3)]Gal(b1-4)[Fuc(a1-3)]GlcNAc
Procedure, shortened: as §1

[18] = biological target: Fuc(a1-2)[Gal(a1-4)]Gal(b1-4)GalNAc
Procedure, shortened: as §1

[19] = biological target: Fuc(a1-2)[GalNAc(a1-3)]Gal
Procedure, shortened: as §1

[20] = biological target: Fuc(a1-2)[GalNAc(a1-3)]Gal(b1-3)GlcNAc
Procedure, shortened: as §1

[21] = biological target: Fuc(a1-2)[GalNAc(a1-3)]Gal(b1-4)Glc
Procedure, shortened: as §1

[22] = biological target: Fuc(a1-2)[GalNAc(a1-3)]Gal(b1-4)GlcNAc
Procedure, shortened: as §1

B1: MLTim-4 (Mus musculus), Q6U7R4 (protein)
chain: MSKGLLLLWLVTELWWLYLTPAASEDTIIGFLGQPVTLPCHYLSWSQSRNSMCWGKGSCPNSKCNAELLRTDGTRIISRKSTKYTLLGKVQFGEVSLTISNTNRGDSGVYCCRIEVPGWFNDVKKNVRLELRRAT
- glycan array binding signal (z-score) (Fuc(a1-2)Gal): 0.189
- glycan array binding signal (z-score) (Fuc(a1-2)Gal(b1-3)GalNAc): 0.158
- glycan array binding signal (z-score) [1]: 0.532
- glycan array binding signal (z-score) [2]: -0.142
- glycan array binding signal (z-score) [3]: 0.06
- glycan array binding signal (z-score) [4]: -0.581
- glycan array binding signal (z-score) [5]: -0.631
- glycan array binding signal (z-score) (Fuc(a1-2)Gal(b1-4)Glc): 0.086
- glycan array binding signal (z-score) (Fuc(a1-2)Gal(b1-4)Glc6S): -0.661
- glycan array binding signal (z-score) (Fuc(a1-2)Gal(b1-4)GlcNAc): 0.084
- glycan array binding signal (z-score) [6]: -0.897
- glycan array binding signal (z-score) [7]: 0.189
- glycan array binding signal (z-score) [8]: 0.078
- glycan array binding signal (z-score) [9]: -0.799
- glycan array binding signal (z-score) [10]: 0.195
- glycan array binding signal (z-score) [11]: -0.53
- glycan array binding signal (z-score) (Fuc(a1-2)Gal6S(b1-4)Glc): 0.961
- glycan array binding signal (z-score) [12]: -0.848
- glycan array binding signal (z-score) [13]: -1.09
- glycan array binding signal (z-score) (Fuc(a1-2)GlcNAc): -0.616
- glycan array binding signal (z-score) (Fuc(a1-2)[Gal(a1-3)]Gal): 0.65
- glycan array binding signal (z-score) [14]: 0.674
- glycan array binding signal (z-score) [15]: -0.387
- glycan array binding signal (z-score) [16]: 0.421
- glycan array binding signal (z-score) [17]: -0.703
- glycan array binding signal (z-score) [18]: 0.25
- glycan array binding signal (z-score) [19]: 0.079
- glycan array binding signal (z-score) [20]: -0.784
- glycan array binding signal (z-score) [21]: -0.23
- glycan array binding signal (z-score) [22]: -0.428
